The source of these data is publication PMC3479092, “Tsetse Salivary Gland Proteins 1 and 2 Are High Affinity Nucleic Acid Binding Proteins with Residual Nuclease Activity”.

No constants are given. Whether binding was seen depends on the method and setting.

The target in the assay is tsetse salivary gland protein 1 (native, in tsetse fly saliva) (Glossina morsitans morsitans (endogenous in saliva)) (UniProt D3TS87). The assay can be described thus: SEC; total saliva on Superdex 200; fractions analysed by silver-stained SDS-PAGE and by western blot with rabbit anti-Tsal1&2 polyclonal IgGs. In general terms: In gel filtration, larger molecules generally elute earlier.

B1: tsetse salivary gland protein 1 (native, in tsetse fly saliva) (protein, UniProt D3TS87 23-399)
chain: DCSLKIPESVENEKTPVIMVRKSLKTFEYDLFQPTGEVTNFPERTELLLACTGAQNYFKNGEESVTLMCHNNEFDDGQGNGLDLFTCVKTPTAELRKTKERCSLGDLYVYDVVFRISEEELVGPVYDICYNEYSQKPAYSRNIINGAAVNYRVPESETDLTVSLAKDFTTRDVNNYFKLENQKQRFQGYTIDGKPLVDDKNFFAPGQLAPDTSMITPADKLSTYDYANIVPQYKTVYDGNVWRVENITRDLAVNRQAKFEVYTGGYERLTALHNGKEEEIFLSAKKYVHEIPKYIYKFVVDKENDAGIVFFTLNNPHVKNVKGTEFCKNQCEEANVLDSNFKDWTQGYTFCCTWNNVKDYVRALPQDIEINNLLKFN
Regarding B1, the binding result is listed as “no binding”.
